Taken from: PubChem BioAssay AID1224826 (NIAID, 2016)
Screen: 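Regulators of Tlr4 signalling leading to Tnf-alpha expression in macrophages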 (primary screen). Cell system: RAW264.7 G9 macrophages from mouse bearing reporters for p65 (GFP) and the Tnf promoter (mCherry). Knock-down reagent: siRNA pool against mouse genes, 100 nM. Time to read-out: 16 h of LPS stimulation, after 2 days of siRNA transfection. Challenge: bacterial lipopolysaccharide (Salmonella minnesota R595), 10 ng/ml. Detection: 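Nuclear mCherry signal of the Tnf promoter reporter measured by imaging after background removal, scaled to each plate median and turned into robust z-scores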. Scale: Tnf reporter robust z-score: higher = stronger Tnf promoter reporter signal after LPS; Tnf reporter intensity: higher = stronger Tnf promoter reporter signal. Rule for the call: 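Called active when robust z-score is at most -1.3, matching the median of the Tlr4 knock-down control, or over 3; control wells and wells with under 50 cells never active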. Meaning of the calls: active = Tnf reporter clearly lowered or raised; inactive = no clear change in Tnf reporter.
The whole screen tested about 17,000 reagents; below is a random part of them. Of all reagents, about 1,110 (6.6%) are marked active. 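Active means lowered or raised reporter signal; replicate intensities are raw and not normalised per plate.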 Reagent sequences are not shown.

gene symbol	Tnf reporter robust z-score	fewer than 50 cells in well	Tnf reporter intensity, replicate 1	Tnf reporter intensity, replicate 2	Outcome
Itih5	1.71	enough cells in well	329	189	inactive
Fn3krp	-0.46	enough cells in well	160	138	inactive
Per3	0.37	enough cells in well	182	134	inactive
Atp5f1d		fewer than 50 cells per well; well left out of calls	117	82.4	inactive
Zfp212		fewer than 50 cells per well; well left out of calls	47.9	40.7	inactive
Retnlg	1.94	enough cells in well	187	236	inactive
Bcl10	2.04	enough cells in well	249	267	inactive
Ube2d2a	1.25	enough cells in well	342	309	inactive
Vmn1r45	0.48	enough cells in well	124	116	inactive
Cnr1	-1.18	enough cells in well	130	177	inactive
Vmn1r35	0.03	enough cells in well	109	99.3	inactive
Schip1	1.74	enough cells in well	197	209	inactive
Vegfd	0.27	enough cells in well	274	263	inactive
Slc22a30	1.29	enough cells in well	217	214	inactive
Or1j14	0.29	enough cells in well	216	120	inactive
Actr5	1.49	enough cells in well	209	282	inactive
Crebrf	-0.97	enough cells in well	127	90.4	inactive
C1qtnf9	-0.6	enough cells in well	203	89.3	inactive
Ccpg1	0.51	enough cells in well	293	243	inactive
Agbl3	2.46	enough cells in well	385	287	inactive
Or2h2	0.13	enough cells in well	341	75.8	inactive
Rdh5	0.79	enough cells in well	430	234	inactive
Cpox	0.2	enough cells in well	262	205	inactive
Ints3	2.36	enough cells in well	258	368	inactive
Hes7	-1.11	enough cells in well	170	99.3	inactive
Afap1l1	-0.29	enough cells in well	211	145	inactive

10 neighbouring records already listed, for reference:
gene symbol	Tnf reporter robust z-score	fewer than 50 cells in well	Tnf reporter intensity, replicate 1	Tnf reporter intensity, replicate 2	Outcome
Schip1	1.74	enough cells in well	197	209	inactive
Vegfd	0.27	enough cells in well	274	263	inactive
Slc22a30	1.29	enough cells in well	217	214	inactive
Or1j14	0.29	enough cells in well	216	120	inactive
Actr5	1.49	enough cells in well	209	282	inactive
Crebrf	-0.97	enough cells in well	127	90.4	inactive
C1qtnf9	-0.6	enough cells in well	203	89.3	inactive
Ccpg1	0.51	enough cells in well	293	243	inactive
Agbl3	2.46	enough cells in well	385	287	inactive
Or2h2	0.13	enough cells in well	341	75.8	inactive

Further reagents follow.
gene symbol	Tnf reporter robust z-score	fewer than 50 cells in well	Tnf reporter intensity, replicate 1	Tnf reporter intensity, replicate 2	Outcome
Avpr2	0.9	enough cells in well	242	453	inactive
Pam16	1.7	enough cells in well	273	253	inactive
Eppin	0.8	enough cells in well	129	124	inactive
Mcm4	-0.47	enough cells in well	270	132	inactive
Hgsnat	3.54	enough cells in well	419	349	active
Slc35e3		fewer than 50 cells per well; well left out of calls	52.8	57.8	inactive
B3gnt4	1.27	enough cells in well	269	211	inactive
Or51l14	0.66	enough cells in well	79.7	144	inactive
Coq10b	-1.24	enough cells in well	169	74.8	inactive
Shc2	1.63	enough cells in well	436	330	inactive
Col4a1	0.04	enough cells in well	245	215	inactive
Inca1	-0.19	enough cells in well	222	148	inactive
Vmn1r15	2.96	enough cells in well	238	178	inactive
Mrpl47		fewer than 50 cells per well; well left out of calls	178	101	inactive
Kif21a	-1.21	enough cells in well	120	73.9	inactive
Plk1		fewer than 50 cells per well; well left out of calls	340	163	inactive
Luc7l3	2.37	enough cells in well	278	291	inactive
Hnrnpk	0.8	enough cells in well	247	287	inactive
Oit3	0.7	enough cells in well	220	195	inactive
2310002L09Rik		fewer than 50 cells per well; well left out of calls	119	0	inactive
Pop4	-0.59	enough cells in well	219	135	inactive
Sh2d2a	0.82	enough cells in well	360	271	inactive
Plaat5	3.54	enough cells in well	446	150	active
Slc19a3		fewer than 50 cells per well; well left out of calls	95.3	93.4	inactive
Atp13a4	-1.39	enough cells in well	72.9	124	active
Ddah2	-1.09	enough cells in well	38.6	92.3	inactive
Gypa	0.18	enough cells in well	240	189	inactive
Abhd17b	1.24	enough cells in well	151	214	inactive
Arhgap24	0.35	enough cells in well	201	175	inactive
Sdhaf4	-0.08	enough cells in well	256	74.5	inactive
Lrit1	-0.14	enough cells in well	177	143	inactive
Simc1		fewer than 50 cells per well; well left out of calls	167	63.1	inactive
